Results from PMC3750173, “Ferredoxin Competes with Bacterial Frataxin in Binding to the Desulfurase IscS*^([image sbox.jpg])” (The Journal of Biological Chemistry, 2013).
These are yes or no findings as the source states them, for the method shown.

The chains behind the UniProt entries cited, without tags or fusion partners.
UniProt P0A6B7: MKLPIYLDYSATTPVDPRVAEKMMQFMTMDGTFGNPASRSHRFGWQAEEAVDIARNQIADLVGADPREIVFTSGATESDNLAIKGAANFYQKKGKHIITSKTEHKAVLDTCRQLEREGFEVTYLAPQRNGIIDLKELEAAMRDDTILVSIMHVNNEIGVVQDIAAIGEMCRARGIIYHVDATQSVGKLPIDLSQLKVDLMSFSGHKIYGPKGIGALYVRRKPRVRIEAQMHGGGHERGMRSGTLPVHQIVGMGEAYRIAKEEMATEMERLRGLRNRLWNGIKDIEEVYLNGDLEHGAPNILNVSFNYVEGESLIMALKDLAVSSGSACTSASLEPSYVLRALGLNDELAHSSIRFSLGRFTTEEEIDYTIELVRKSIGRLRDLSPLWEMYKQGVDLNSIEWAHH

Target: T1, holo-Fdx_D70K (E. coli) (UniProt P0A9R4)
T1 sequence (chain, [2Fe-2S] cluster bound (holo); 15N labelled): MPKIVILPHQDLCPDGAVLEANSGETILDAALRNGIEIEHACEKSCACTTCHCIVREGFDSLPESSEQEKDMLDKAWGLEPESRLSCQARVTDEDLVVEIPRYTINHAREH
Experiment: NMR titration; 15N-SOFAST HMQC of [15N]- or [15N/2H]Fdx or Fdx mutants titrated with unlabelled IscS or IscS mutants; 20 mM Tris, 150 mM NaCl, 20 mM TCEP, pH 8, 298 K; both purified

Substance: IscS (E. coli desulfurase), wild type (from UniProt P0A6B7 1-404) (enzyme)
- binding: no binding (tested: 2.5 molar eq of IscS)
